Laboratory results: PubChem BioAssay AID493246 (Drosophila RNAi Screening Center, 2011)
The deposit covers about 21,000 reagents; this is an unselected part of those that have a named target and a result. Over the whole deposit, 429 (2%) are marked active. 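Values are raw and not normalised between plates; calls rest on per-plate z-scores that were not deposited.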 Reagents against one gene are numbered here. Not given: the amount of reagent, the time to read-out.

- Purpose: 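Genes fly cells need to grow and stay alive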 (primary screen)
- Cells: Drosophila Kc and S2R+ cells
- Reagents: long dsRNA against Drosophila genes
- Detection: 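Cell number per well after knock-down, printed as raw plate values; calls were based on per-plate z-scores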
- Reading the numbers: Kc cell number and S2R+ cell number: higher = more cells remaining
- Hit rule: 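Counted as a hit if cell number falls by a z-score of at least 3 within its plate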

Ddx1: Kc cell number, rep 1 = 1.53e6; Kc cell number, rep 2 = 1.54e6; S2R+ cell number, rep 1 = 1.29e6; S2R+ cell number, rep 2 = 1.31e6; Outcome = inactive
Indy: Kc cell number, rep 1 = 1.58e6; Kc cell number, rep 2 = 1.57e6; S2R+ cell number, rep 1 = 1.24e6; S2R+ cell number, rep 2 = 1.29e6; Outcome = inactive
Gr32a: Kc cell number, rep 1 = 1.50e6; Kc cell number, rep 2 = 1.59e6; S2R+ cell number, rep 1 = 1.24e6; S2R+ cell number, rep 2 = 1.37e6; Outcome = inactive
ine: Kc cell number, rep 1 = 1.11e6; Kc cell number, rep 2 = 1.32e6; S2R+ cell number, rep 1 = 6.64e5; S2R+ cell number, rep 2 = 6.63e5; Outcome = inactive
CG13101: Kc cell number, rep 1 = 1.31e6; Kc cell number, rep 2 = 1.45e6; S2R+ cell number, rep 1 = 1.12e6; S2R+ cell number, rep 2 = 1.14e6; Outcome = inactive
Smox: Kc cell number, rep 1 = 1.52e6; Kc cell number, rep 2 = 1.49e6; S2R+ cell number, rep 1 = 1.02e6; S2R+ cell number, rep 2 = 1.09e6; Outcome = inactive
CG31141: Kc cell number, rep 1 = 1.09e6; Kc cell number, rep 2 = 1.36e6; S2R+ cell number, rep 1 = 1.06e6; S2R+ cell number, rep 2 = 1.05e6; Outcome = inactive
CG10799: Kc cell number, rep 1 = 1.44e6; Kc cell number, rep 2 = 1.47e6; S2R+ cell number, rep 1 = 1.21e6; S2R+ cell number, rep 2 = 1.37e6; Outcome = inactive
CG13876: Kc cell number, rep 1 = 1.42e6; Kc cell number, rep 2 = 1.22e6; S2R+ cell number, rep 1 = 1.02e6; S2R+ cell number, rep 2 = 1.24e6; Outcome = inactive
CG30470 (retired record) #1: Kc cell number, rep 1 = 1.43e6; Kc cell number, rep 2 = 1.47e6; S2R+ cell number, rep 1 = 5.94e5; S2R+ cell number, rep 2 = 7.40e5; Outcome = active
CG30470 (retired record) #2: Kc cell number, rep 1 = 1.62e6; Kc cell number, rep 2 = 1.70e6; S2R+ cell number, rep 1 = 1.36e6; S2R+ cell number, rep 2 = 1.54e6; Outcome = inactive
CG30470 (retired record) #3: Kc cell number, rep 1 = 1.61e6; Kc cell number, rep 2 = 1.67e6; S2R+ cell number, rep 1 = 1.33e6; S2R+ cell number, rep 2 = 1.50e6; Outcome = inactive
CG30470 (retired record) #4: Kc cell number, rep 1 = 1.62e6; Kc cell number, rep 2 = 1.63e6; S2R+ cell number, rep 1 = 1.32e6; S2R+ cell number, rep 2 = 1.50e6; Outcome = inactive

Not a retest: an excerpt of the list.
CG30470 (retired record) #3: Kc cell number, rep 1 = 1.61e6; Kc cell number, rep 2 = 1.67e6; S2R+ cell number, rep 1 = 1.33e6; S2R+ cell number, rep 2 = 1.50e6; Outcome = inactive
CG30470 (retired record) #4: Kc cell number, rep 1 = 1.62e6; Kc cell number, rep 2 = 1.63e6; S2R+ cell number, rep 1 = 1.32e6; S2R+ cell number, rep 2 = 1.50e6; Outcome = inactive
